Reference: patent US8258125B2, “HDL-boosting combination therapy complexes” (priority 2008, dated 2012)
At least one structure is not confirmed: it was looked up by name or label, or the drawing left a doubt.

Tested on: Golden Syrian hamster
Assay: Evaluation of antilipidemic property in hamster animal model (2-week daily oral gavage)
Type: in vivo
Settings: monotherapy
From the text: Evaluation of antilipidemic property in animal. Golden Syrian hamster, 8-wk old (85-100 g) (Bio®F1B, Bio Breeders, Inc., Watertown, Mass.) was the animal model chosen for this study because of its similarities with humans in lipoprotein metabolism and atherosclerosis Moreover, the hamster has plasma cholesteryl ester transfer protein (CETP) similar to humans. Dietary fat saturation affects apolipoprotein gene expression and high-density lipoprotein size distribution in golden Syrian hamsters. The animals housed four per cage were fed […] Supreme Fortified Hamster diet ([…] Products, Inc. Chilton, Wis.), with one part ratio of Heath High Energy suet (Heath Mfg., Cooperville, Mich.); water ad libitum. The animals were fed this diet for 1 week, and then given the drug treatment for a 2-week duration. Drugs were administered by daily oral gavage using 4:6 PEG/Cremaphore suspension vehicle for the water-insoluble drugs (e.g., atorvastatin, lovastatin, simvastatin, and the fibrates); the water-soluble drugs (dihydroxy-acid salts, pravastatin) were dissolved in water. […] Thus, the calculated final dose for a 100-gm hamster is 0.143 mg as well ([…] X a factor of “10”), formulated in a 0.25 ml solution for oral gavage administration. […] Body weights were recorded prior to drug administration and every other day during the test duration. […]

CCC(C)(C)C(=O)O[C@H]1C[C@@H](C)C=C2C=C[C@H](C)[C@H](CC[C@@H]3C[C@@H](O)CC(=O)O3)[C@H]21 [Zocor, Simvastatin]
raising HDL-C (in words): did not show any increase in HDL-C
